{"sequences": {"note": "Amino acid sequences for entries named in this document (tags omitted). A change or cut given only in a name is not applied to a line headed by its entry.", "UniProt P43403": "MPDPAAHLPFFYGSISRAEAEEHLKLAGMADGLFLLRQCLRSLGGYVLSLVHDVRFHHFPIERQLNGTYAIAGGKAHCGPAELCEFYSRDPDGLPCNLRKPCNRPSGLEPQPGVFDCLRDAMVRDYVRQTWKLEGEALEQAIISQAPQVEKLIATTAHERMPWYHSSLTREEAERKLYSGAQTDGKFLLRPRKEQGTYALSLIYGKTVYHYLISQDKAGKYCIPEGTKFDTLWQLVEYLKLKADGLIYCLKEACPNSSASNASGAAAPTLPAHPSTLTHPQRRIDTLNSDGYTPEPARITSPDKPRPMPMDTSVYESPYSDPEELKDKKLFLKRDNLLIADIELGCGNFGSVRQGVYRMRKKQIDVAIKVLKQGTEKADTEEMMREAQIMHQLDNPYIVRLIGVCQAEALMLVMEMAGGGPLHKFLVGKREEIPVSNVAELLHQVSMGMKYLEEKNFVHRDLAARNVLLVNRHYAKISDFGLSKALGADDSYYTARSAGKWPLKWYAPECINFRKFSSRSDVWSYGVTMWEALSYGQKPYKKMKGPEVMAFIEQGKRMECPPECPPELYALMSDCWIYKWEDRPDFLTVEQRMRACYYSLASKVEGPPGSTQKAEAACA", "UniProt P11802": "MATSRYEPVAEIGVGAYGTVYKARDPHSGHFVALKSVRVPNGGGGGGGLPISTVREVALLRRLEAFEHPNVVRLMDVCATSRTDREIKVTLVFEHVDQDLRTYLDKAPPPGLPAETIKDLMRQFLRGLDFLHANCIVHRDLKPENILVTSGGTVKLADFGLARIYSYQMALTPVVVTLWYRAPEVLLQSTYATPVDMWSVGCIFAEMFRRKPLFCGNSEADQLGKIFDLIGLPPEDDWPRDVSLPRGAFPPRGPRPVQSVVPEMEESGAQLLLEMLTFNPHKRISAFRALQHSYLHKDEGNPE"}, "source": "the supplement of paper PMC12823440", "about": "“Inhibitors supercharge kinase turnover through native proteolytic circuits” (Nature, 2025)", "note": "Where a name gives a salt, the structure may show the parent alone. The list shows a part of the results. Hit calls seldom repeat between salt and free forms of one compound.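 In K562 cells expressing nanoluciferase-fused kinases, luminescence was recorded at 4 h intervals between 2 and 18 h, normalized as percent of control with DMSO at 100% and a positive control at 0%. A significant (2 sigma) signal drop marks a time point as decreased. The authors' rule for a hit is not shown and takes in more than the number of time points.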"}
{"molecular_target": "ZAP70 (UniProt P43403)", "test": "number of time points (of 5) at which kinase-Nluc abundance scored as decreased, DMSO-normalised (count); higher = more persistent destabilization", "conditions": "K562; 2-18 h"}
{"smiles": "Cc1ccc(-n2nc(C(C)(C)C)cc2NC(=O)Nc2ccc(OCCN3CCOCC3)cc2)cc1", "note": "(10 µM)", "number of time points": 0}
{"smiles": "c1ccc(Cn2c(-c3ccc(OC[C@H](C4CCNCC4)n4c(-c5ccccc5)nc5ccccc54)cc3)nc3ccccc32)cc1", "note": "[Deltarasin] (2.5 µM)", "number of time points": 0}
{"smiles": "C=CC(=O)N1CC[C@@H](Oc2nc(Nc3ccc(N4CCC(N5CCN(C)CC5)CC4)cc3)c(C(N)=O)nc2CC)C1", "note": "[Naquotinib (mesylate)] (2.5 µM)", "number of time points": 0}
{"smiles": "Cc1cc(O)c2c(c1)C(=O)c1cccc(O)c1C2=O", "note": "[Chrysophanol] (2 µM)", "number of time points": 0}
{"smiles": "Cc1cc(C(=O)NC(C)(C)C)cc(C#Cc2ccc3c4c(oc3c2)C(C)(C)c2cc(NS(C)(=O)=O)ccc2C4=O)n1", "note": "(10 µM)", "number of time points": 0}
{"smiles": "Nc1nc(NCCNc2ncc(-n3ccnc3)c(-c3ccc(Cl)cc3Cl)n2)ccc1[N+](=O)[O-]", "note": "(2.5 µM)", "number of time points": 0}
{"smiles": "Cn1c(CNc2cccc(C(=O)NCc3ccccc3C(F)(F)F)c2)nnc1-c1ccncc1", "note": "(10 µM)", "number of time points": 0}
{"molecular_target": "CDK4 (UniProt P11802)", "test": "number of time points (of 4; 2 h point missing) at which kinase-Nluc abundance scored as decreased, DMSO-normalised (count); higher = more persistent destabilization", "conditions": "K562; 2-18 h"}
{"smiles": "CC(C)n1ncnc1-c1cn2c(n1)-c1ccc(O[C@@H](C)C(N)=O)cc1OCC2", "note": "(10 µM)", "number of time points": 0}
{"smiles": "O=C(c1cccc(Cl)c1F)N1CCN(Cc2cccc(Nc3nccs3)n2)CC1", "note": "(2.5 µM)", "number of time points": 0}
{"smiles": "COc1cc(F)ccc1-c1ncnc(Nc2cccc(C[S@](C)(=N)=O)c2)n1", "note": "[Atuveciclib] (2.5 µM)", "number of time points": 0}
{"smiles": "Cc1cnc(NC(=O)c2cc(Oc3cnc(C(=O)N(C)C)nc3)c3cc(C)oc3c2)cn1", "note": "(10 µM)", "number of time points": 0}
{"smiles": "CC1=C(C(=O)Nc2cc3cn[nH]c3cc2F)C(c2ccc(C(F)(F)F)cc2)CC(=O)N1", "note": "(stereo not given) (10 µM)", "number of time points": 0}
{"smiles": "NCC1CCC(CNc2nc(NCc3ccccc3OC(F)(F)F)ncc2[N+](=O)[O-])CC1", "note": "(stereo not given) [PKC-theta inhibitor] (10 µM)", "number of time points": 0}
{"smiles": "O=C1Nc2ccc(I)cc2/C1=C/c1cc(Br)c(O)c(Br)c1", "note": "(10 µM)", "number of time points": 1}
{"smiles": "COc1cc(-c2oc3cc(O)cc(O)c3c(=O)c2O)ccc1O", "note": "[Isorhamnetin] (10 µM)", "number of time points": 0}
{"smiles": "O=C1OC(/C=C/c2ccccc2)=NC/1=C\\c1cccnc1", "note": "(10 µM)", "number of time points": 0}
{"smiles": "Cn1ncc(NC(=O)c2nc(-c3c(F)cccc3F)sc2N)c1N1CC[C@@H](N)[C@H](F)CC1", "note": "(10 µM)", "number of time points": 0}
{"smiles": "CNC(=O)CNc1cnc2ccc(-c3ccc(OC)c(OC)c3)cc2n1", "note": "(10 µM)", "number of time points": 0}
{"smiles": "CO[C@H]1C[C@@H]2CC[C@@H](C)[C@@](O)(O2)C(=O)C(=O)N2CCCC[C@H]2C(=O)O[C@H]([C@H](C)C[C@@H]2CC[C@@H](OCCO)[C@H](OC)C2)CC(=O)[C@H](C)/C=C(\\C)[C@@H](O)[C@@H](OC)C(=O)[C@H](C)C[C@H](C)/C=C/C=C/C=C/1C", "note": "[Everolimus] (10 µM)", "number of time points": 0}
{"smiles": "O=C(Nc1cccnc1)c1cc(-c2ccnc(F)c2)ccc1OCc1ccccc1", "note": "(10 µM)", "number of time points": 0}
{"smiles": "COc1c(O)cc2oc(-c3ccc(O)cc3)cc(=O)c2c1O", "note": "[Hispidulin] (10 µM)", "number of time points": 0}
{"smiles": "O=C1CC[C@H](NC(=O)Cc2ccccc2)C(=O)N1", "note": "[Antineoplaston A10] (10 µM)", "number of time points": 0}
{"smiles": "CC(C)Oc1ccc(F)c(-c2cnc(N)c(C(=O)Nc3cnccc3N3CCC[C@@H](C(=O)O)C3)n2)c1", "note": "(2 µM)", "number of time points": 0}
{"smiles": "Nc1nc2c(nc(Br)n2[C@@H]2O[C@@H]3COP(=O)(O)O[C@H]3[C@H]2O)c(=O)[nH]1", "note": "[8-Bromo-cGMP (sodium)] (10 µM)", "number of time points": 0}
{"smiles": "Cc1cc(-n2c(=O)ccc3c[nH]c4nccc-4c32)ccc1F", "note": "(10 µM)", "number of time points": 0}
{"smiles": "CO[C@H]1CC[C@H](N2C(=O)CNc3ncc(-c4ccc(C(C)(C)O)nc4)nc32)CC1", "note": "(2.5 µM)", "number of time points": 0}
{"smiles": "COc1cc2c(cc1OC)/C(=C/c1ccc(O)cc1)C(=O)N2", "note": "(10 µM)", "number of time points": 0}
{"smiles": "NCCOc1ccc(Cl)cc1C(=O)Nc1ccc([N+](=O)[O-])cc1Cl", "note": "[HJC0152 hydrochloride] (2 µM)", "number of time points": 0}
{"smiles": "CCN(CC)CCOc1ccc(Nc2nc(-c3ccccc3NC(=O)CCN3CCN(C)CC3)nc3ccccc23)cc1", "note": "(2.5 µM)", "number of time points": 0}
{"smiles": "C=CC(=O)N1CCN(C(=O)CNc2cc(I)c(Cl)cc2O)CC1", "note": "[K-Ras(G12C) inhibitor 12] (10 µM)", "number of time points": 0}
{"smiles": "N[C@@H]1CCCN(c2c(/C=C3\\SC(=O)NC3=O)cccc2-c2ccccc2)C1", "note": "(10 µM)", "number of time points": 0}
{"smiles": "O=C(Nc1cc(Cl)cc2c1[nH]c1cnccc12)c1cccnc1", "note": "(10 µM)", "number of time points": 0}
{"smiles": "C=C1C(=O)[C@@]23[C@H](O)C[C@@H]4C(C)(C)C(=O)CC[C@@]4(C)[C@@H]2CC[C@@H]1[C@H]3O", "note": "[Glaucocalyxin A] (2.5 µM)", "number of time points": 0}
{"smiles": "C[C@@H]1O[C@@H](Oc2cc(O)c3c(=O)c(O[C@@H]4O[C@@H](C)[C@H](O)[C@@H](O)[C@H]4O)c(-c4ccc(O)cc4)oc3c2)[C@H](O)[C@H](O)[C@H]1O", "note": "[Kaempferitrin] (10 µM)", "number of time points": 0}
{"smiles": "Cc1c(C(=O)Nc2ccc(Oc3ccnc4[nH]cc(-c5ccccc5)c34)c(F)c2)c(=O)n(-c2ccc(F)cc2)n1C", "note": "(10 µM)", "number of time points": 0}
{"smiles": "c1nc2c(NC3CCCCC3)nc(Nc3ccc(N4CCOCC4)cc3)nc2[nH]1", "note": "[Reversine] (10 µM)", "number of time points": 0}
{"smiles": "CN1CCN(c2ccc(Nc3ncc4cc(C#N)c(=O)n(C5CCCC5)c4n3)cc2)CC1", "note": "(10 µM)", "number of time points": 0}
{"smiles": "NC[C@@](O)(c1ccc(Cl)cc1)c1ccc(-c2cn[nH]c2)cc1", "note": "(10 µM)", "number of time points": 0}
{"smiles": "Cc1ccc(-n2nc(C(C)(C)C)cc2NC(=O)Nc2ccc(OCCN3CCOCC3)cc2)cc1", "note": "(10 µM)", "number of time points": 0}
{"smiles": "c1ccc(Cn2c(-c3ccc(OC[C@H](C4CCNCC4)n4c(-c5ccccc5)nc5ccccc54)cc3)nc3ccccc32)cc1", "note": "[Deltarasin] (2.5 µM)", "number of time points": 0}
{"smiles": "C=CC(=O)N1CC[C@@H](Oc2nc(Nc3ccc(N4CCC(N5CCN(C)CC5)CC4)cc3)c(C(N)=O)nc2CC)C1", "note": "[Naquotinib (mesylate)] (2.5 µM)", "number of time points": 0}
{"smiles": "Cc1cc(O)c2c(c1)C(=O)c1cccc(O)c1C2=O", "note": "[Chrysophanol] (2 µM)", "number of time points": 0}
{"smiles": "Cc1cc(C(=O)NC(C)(C)C)cc(C#Cc2ccc3c4c(oc3c2)C(C)(C)c2cc(NS(C)(=O)=O)ccc2C4=O)n1", "note": "(10 µM)", "number of time points": 0}
{"smiles": "Nc1nc(NCCNc2ncc(-n3ccnc3)c(-c3ccc(Cl)cc3Cl)n2)ccc1[N+](=O)[O-]", "note": "(2.5 µM)", "number of time points": 0}
{"smiles": "Cn1c(CNc2cccc(C(=O)NCc3ccccc3C(F)(F)F)c2)nnc1-c1ccncc1", "note": "(10 µM)", "number of time points": 0}
